Assay results reported in patent publication US20210293825A1, “METHODS FOR PRECISION THERAPEUTIC TARGETING OF HUMAN CANCER CELL MOTILITY AND KITS THEREOF” (UNITED STATES GOVERNMENT AS REPRESENTED BY THE DEPARTMENT …, priority 2018, published 2021).
Results are given in words; binding and its absence hold for the method and conditions named. Some results given as binding are weak or reduced against the parent protein; the word gives no strength. Where a sequence is shown, tags or fusion partners need not be part of it.

By UniProt entry, the sequences of proteins in these tests, tags left out. Where a name states a change or a piece, a line headed by the entry shows the natural chain unless it says otherwise.
UniProt P27652: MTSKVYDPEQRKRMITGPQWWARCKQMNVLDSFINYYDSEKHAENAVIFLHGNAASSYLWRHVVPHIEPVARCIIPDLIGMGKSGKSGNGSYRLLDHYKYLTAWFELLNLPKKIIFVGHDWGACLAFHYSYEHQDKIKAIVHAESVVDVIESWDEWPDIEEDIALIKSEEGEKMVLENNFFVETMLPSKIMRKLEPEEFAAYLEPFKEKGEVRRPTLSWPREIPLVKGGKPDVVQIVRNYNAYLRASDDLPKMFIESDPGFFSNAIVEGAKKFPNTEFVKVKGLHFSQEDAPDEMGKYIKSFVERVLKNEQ

Experiments:
[1] = biological target: HSP90β/CDC37 heterocomplex in HEK293T cells stably expressing Renilla-HSP90β (LUMIER assay) (UniProt P27652); test: LUMIER assay in TGFβ-treated HEK293T cells, with and without 10 µM KBU2046
[2] = biological target: HSP90β/CDC37 heterocomplex in HEK293T cells stably expressing Renilla-HSP90β (LUMIER assay) (UniProt P27652); test: LUMIER assay in HEK293T cells

B1: FLAG-tagged SGK3 transfected into HEK293T cells (enzyme, UniProt Q96BR1 1-496, looked up)
chain: MQRDHTMDYKESCPSVSIPSSDEHREKKKRFTVYKVLVSVGRSEWFVFRRYAEFDKLYNTLKKQFPAMALKIPAKRIFGDNFDPDFIKQRRAGLNEFIQNLVRYPELYNHPDVRAFLQMDSPKHQSDPSEDEDERSSQKLHSTSQNINLGPSGNPHAKPTDFDFLKVIGKGSFGKVLLAKRKLDGKFYAVKVLQKKIVLNRKEQKHIMAERNVLLKNVKHPFLVGLHYSFQTTEKLYFVLDFVNGGELFFHLQRERSFPEHRARFYAAEIASALGYLHSIKIVYRDLKPENILLDSVGHVVLTDFGLCKEGIAISDTTTTFCGTPEYLAPEVIRKQPYDNTVDWWCLGAVLYEMLYGLPPFYCRDVAEMYDNILHKPLSLRPGVSLTAWSILEELLEKDRQNRLGAKEDFLEIQNHPFFESLSWADLVQKKIPPPFNPNVAGPDDIRNFDTAFTEETVPYSVCVSSDYSIVNASVLEADDAFVGFSYAPPSEDLFL
[1]
  binding: binds
[2]
  binding: binds

B2: FLAG-tagged MAP3K6 transfected into HEK293T cells (enzyme, UniProt O95382 1-1288, looked up)
chain: MAGPCPRSGAERAGSCWQDPLAVALSRGRQLAAPPGRGCARSRPLSVVYVLTREPQPGLEPREGTEAEPLPLRCLREACAQVPRPRPPPQLRSLPFGTLELGDTAALDAFYNADVVVLEVSSSLVQPSLFYHLGVRESFSMTNNVLLCSQADLPDLQALREDVFQKNSDCVGSYTLIPYVVTATGRVLCGDAGLLRGLADGLVQAGVGTEALLTPLVGRLARLLEATPTDSCGYFRETIRRDIRQARERFSGPQLRQELARLQRRLDSVELLSPDIIMNLLLSYRDVQDYSAIIELVETLQALPTCDVAEQHNVCFHYTFALNRRNRPGDRAKALSVLLPLVQLEGSVAPDLYCMCGRIYKDMFFSSGFQDAGHREQAYHWYRKAFDVEPSLHSGINAAVLLIAAGQHFEDSKELRLIGMKLGCLLARKGCVEKMQYYWDVGFYLGAQILANDPTQVVLAAEQLYKLNAPIWYLVSVMETFLLYQHFRPTPEPPGGPPRRAHFWLHFLLQSCQPFKTACAQGDQCLVLVLEMNKVLLPAKLEVRGTDPVSTVTLSLLEPETQDIPSSWTFPVASICGVSASKRDERCCFLYALPPAQDVQLCFPSVGHCQWFCGLIQAWVTNPDSTAPAEEAEGAGEMLEFDYEYTETGERLVLGKGTYGVVYAGRDRHTRVRIAIKEIPERDSRFSQPLHEEIALHRRLRHKNIVRYLGSASQGGYLKIFMEEVPGGSLSSLLRSVWGPLKDNESTISFYTRQILQGLGYLHDNHIVHRDIKGDNVLINTFSGLLKISDFGTSKRLAGITPCTETFTGTLQYMAPEIIDQGPRGYGKAADIWSLGCTVIEMATGRPPFHELGSPQAAMFQVGMYKVHPPMPSSLSAEAQAFLLRTFEPDPRLRASAQTLLGDPFLQPGKRSRSPSSPRHAPRPSDAPSASPTPSANSTTQSQTFPCPQAPSQHPPSPPKRCLSYGGTSQLRVPEEPAAEEPASPEESSGLSLLHQESKRRAMLAAVLEQELPALAENLHQEQKQEQGARLGRNHVEELLRCLGAHIHTPNRRQLAQELRALQGRLRAQGLGPALLHRPLFAFPDAVKQILRKRQIRPHWMFVLDSLLSRAVRAALGVLGPEVEKEAVSPRSEELSNEGDSQQSPGQQSPLPVEPEQGPAPLMVQLSLLRAETDRLREILAGKEREYQALVQRALQRLNEEARTYVLAPEPPTALSTDQGLVQWLQELNVDSGTIQMLLNHSFTLHTLLTYATRDDLIYTRIRGGMVCRIWRAILAQRAGSTPVTSGP
[2]
  binding: binds
